At least one compound was matched to its structure with a doubt left.
Test system: MOLM-13 cells
Test: MOLM-13 cell viability (Assay B), Cell Titer-Glo
Type: cell-based
Experimental: MOLM-13 cells (an acute myeloid leukemia cell line) were plated in RPMI supplied with 10% FBS and 1% Pen/Strep in 384-well plates at 1,000 cells per well on day 0. On day 1, treatment of the cells with compound (concentration range 10E-5 and 6E-12 M) was initiated in the presence or absence of 100 μM uridine. After 72 hours incubation of the cells with or without test compound, the number of viable cells per well was assessed by Cell Titer-Glo Luminescent Cell Viability Assay (Promega, Madison, WI, USA). […] Each condition was tested in duplicate and the potency of test compounds was determined from two independent experiments.

`O=C(N[C@@H]1COCc2c1cnn2-c1c(Cl)cccc1Cl)c1ncn2c1CCCC2` (single isomer, unassigned) [Ex-13] was tested, and the “MOLM13 cell growth and/or viability (FIG. 2)” value (absence of uridine) was “reduce MOLM13 cell growth and/or viability” and the “effect on MOLM13 cell growth and/or viability on addition of excess uridine (FIG. 2)” value (presence of 100 μM uridine) was “largely prevented”.

Source: patent publication US20250388602A1 (Genase Therapeutics B.V., priority 2022, published 2025)
